Results are given in words; binding and its absence hold for the method and conditions named. In cells and extracts the contact can be indirect. Some binding calls cover weakened binding; strength is not graded here. Tags and fused reporters may be left off the sequences shown. Values belong to the binder of their own block, whether it stands above or below them.
Target: C-terminally HA-tagged wild type human Ulk4 (Ulk4-WT–HA) (human) (UniProt Q96C45)
Assay: co-IP; HEK293T cells transfected with Fg-tagged and HA-tagged Ulk4 constructs, immunoprecipitation and western blot with the indicated antibodies (which tag was precipitated is not given)

binding: binds
B1: C-terminal fragment of Ulk4-EE from amino acids 1004–1275, Flag-tagged (C272-EE–Fg) (domain or fragment, UniProt Q96C45 1004-1275)
chain: VPAYALKLLVAMTEHNPEFERLVEESKLIPLIFEVTLEHQESILGNTMQSVIALLSNLVACKDSNMELLYEQGLVSHICNLLTETATLCLDVDNKNNNEMAAPLLFSLLDILHSMLTYTSGIVRLALQAQKSGSGEDPQAAEDLLLLNRPLTDLISLLIPLLPNEDPEIFDVSSKCLSILVQLYGGENPDSLSPENVEIFAHLLTSKEDPKEQKLLLRILRRMITSNEKHLESLKNAGSLLRALERLAPGSGSFADSAVAPLALEILQAVGH

binding: binds
B2: Flag-tagged Ulk4-EE-KR (Ulk4-EE-KR–Fg), human Ulk4 T1021E/T1023E/K1030R (protein, UniProt Q96C45 1-1275)
chain: MENFILYEEIGRGSKTVVYKGRRKGTINFVAILCTDKCKRPEITNWVRLTREIKHKNIVTFHEWYETSNHLWLVVELCTGGSLKTVIAQDENLPEDVVREFGIDLISGLHHLHKLGILFCDISPRKILLEGPGTLKFSNFCLAKVEGENLEEFFALVAAEEGGGDNGENVLKKSMKSRVKGSPVYTAPEVVRGADFSISSDLWSLGCLLYEMFSGKPPFFSESISELTEKILCEDPLPPIPKDSSRPKASSDFINLLDGLLQRDPQKRLTWTRLLQHSFWKKAFAGADQESSVEDLSLSRNTMECSGPQDSKELLQNSQSRQAKGHKSGQPLGHSFRLENPTEFRPKSTLEGQLNESMFLLSSRPTPRTSTAVEVSPGEDMTHCSPQKTSPLTKITSGHLSQQDLESQMRELIYTDSDLVVTPIIDNPKIMKQPPVKFDAKILHLPTYSVDKLLFLKDQDWNDFLQQVCSQIDSTEKSMGASRAKLNLLCYLCVVAGHQEVATRLLHSPLFQLLIQHLRIAPNWDIRAKVAHVIGLLASHTAELQENTPVVEAIVLLTELIRENFRNSKLKQCLLPTLGELIYLVATQEEKKKNPRECWAVPLAAYTVLMRCLREGEERVVNHMAAKIIENVCTTFSAQSQGFITGEIGPILWYLFRHSTADSLRITAVSALCRITRHSPTAFQNVIEKVGLNSVINSLASAICKVQQYMLTLFAAMLSCGIHLQRLIQEKGFVSTIIRLLDSPSTCIRAKAFLVLLYILIYNREMLLLSCQARLVMYIERDSRKTTPGKEQQSGNEYLSKCLDLLICHIVQELPRILGDILNSLANVSGRKHPSTVQVKQLKLCLPLMPVVLHLVTSQVFRPQVVTEEFLFSYGTILSHIKSVDSGETNIDGAIGLTASEEFIKITLSAFEAIIQYPILLKDYRSTVVDYILPPLVSLVQSQNVEWRLFSLRLLSETTSLLVNQEFGDGKEKASVDSDSNLLALIRDVLLPQYEHILLEPDPVPAYALKLLVAMTEHNPEFERLVEESRLIPLIFEVTLEHQESILGNTMQSVIALLSNLVACKDSNMELLYEQGLVSHICNLLTETATLCLDVDNKNNNEMAAPLLFSLLDILHSMLTYTSGIVRLALQAQKSGSGEDPQAAEDLLLLNRPLTDLISLLIPLLPNEDPEIFDVSSKCLSILVQLYGGENPDSLSPENVEIFAHLLTSKEDPKEQKLLLRILRRMITSNEKHLESLKNAGSLLRALERLAPGSGSFADSAVAPLALEILQAVGH

— article PMC12148026
